Read-outs that look alike come from different tables or passages of the source. Some of these results come from one statement about several compounds together. For some assays here: The name of at least one read-out is uncertain.
Experiments:
Trichodina sp. = format: cell-based; details: commercial FAEE
Gyrodactylus turnbulli = format: cell-based; details: commercial FAEE, concentration between 18.75 μM and 75 μM, 1% Kolliphor and sonication, up to 240 min
Excerpt: FIGS. 2A-2C include graphs showing antiparasitic effect of residue extract and preparations (FFA & FAEE) with and without the addition of the food-grade detergent Kolliphor (K) and sonication(S) prior to analysis. […] Gyrodactylus turnbulli was exposed to the following preparations: (2A) residue extract (RE) and RE with Kolliphor and sonication (RE-K-S); (2B) FFA and FFA with Kolliphor and sonication (FFA-K-S); and (2C) FAEE with Kolliphor and sonication (FAEE-K-S). The numbers represent the tested concentrations of the solution applied at μL mL^−1. n=3 wells with at least five observed parasites per well.
FIG. 5 includes a vertical bar graph showing dose-dependent antiparasitic effect of fatty acids in their ethyl ester form as tested in situ. Selected were the four FAs that appeared at the highest level in the residue and its extracts and preparations, as pure commercial compounds: myristic acid (14:0), palmitic acid (16:0), palmitoleic acid (16:1n7), and EPA (20:5n3). […] Time to reach 50% parasite mortality was recorded. […]
An in-situ assay was carried out, as described previously (Kim et al., 2021). […] Parasites were observed under an inverted microscope (Axiovert 40 CFL, Carl Zeiss AG) for 4 h, at intervals ranging from 5 to 30 min, during which detached and dead parasites were recorded. A total of 12-15 parasites (with three replicates) were analyzed for each treatment concentration. […]

[1] = concentration between 18.75 μM and 75 μM (FIG. 12A)
[2] = concentration between 18.75 μM and 150 µM (FIG. 12B)

Row | Structure (SMILES) | mortality (Trichodina sp.; [1]) | mortality (Trichodina sp.; [2]) | mortality (Gyrodactylus turnbulli)
1 | CCCCCCCCC(=O)OCC [9:0, ethyl nonanoate] | at least 50% | ≥ 100% | –
2 | CCCCCCCCCC(=O)OCC [10:0, ethyl decanoate] | – | – | at least 50%
3 | CCCCCCCCCCCC(=O)OCC [12:0, ethyl laurate] | at least 50% | ≥ 100% | –
4 | CCCCCCCCCCCCCC(=O)OCC [14:0, ethyl myristate] | at least 50% | ≥ 100% | –
5 | CCCCCCCCCCCCCCCC(=O)OCC [16:0, ethyl palmitate] | at least 50% | ≥ 100% | –
6 | CCCCCC[C@@H](O)C/C=C\CCCCCCCC(=O)OCC [18:1-OH, ethyl ricinoleate] | at least 50% | ≥ 100% | –

From patent publication US20260083697A1, “COMPOSITION AND USE OF SAME FOR CONTROLLING INFECTIONS IN AQUATIC ORGANISMS” (priority 2022, published 2026)
